From paper doi:10.1101/2023.07.10.548302
These are yes or no findings as the source states them, for the method shown. Binding seen in cells or lysates may run through a third protein. Some results given as binding are weak or reduced against the parent protein; the word gives no strength. For part of these data: Where a sequence is shown, tags or fusion partners need not be part of it.

Tests used:
Assay in all cases: proximity ligation
[1] = molecular target: T1, Vap33 (endogenous, larval tissues) (Drosophila (endogenous in larval tissues)) (UniProt Q9W4N8)
T1 sequence: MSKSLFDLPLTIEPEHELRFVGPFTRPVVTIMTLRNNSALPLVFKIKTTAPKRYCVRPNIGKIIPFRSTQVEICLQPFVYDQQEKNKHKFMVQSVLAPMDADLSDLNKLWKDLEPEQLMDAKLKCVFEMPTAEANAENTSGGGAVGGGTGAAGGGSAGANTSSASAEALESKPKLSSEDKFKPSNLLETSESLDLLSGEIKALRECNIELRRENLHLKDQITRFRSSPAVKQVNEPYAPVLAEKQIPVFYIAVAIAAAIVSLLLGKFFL

[2] = molecular target: T2, atypical protein kinase C (aPKC) (Drosophila (endogenous in larval tissues)) (UniProt A1Z9X0)
T2 sequence: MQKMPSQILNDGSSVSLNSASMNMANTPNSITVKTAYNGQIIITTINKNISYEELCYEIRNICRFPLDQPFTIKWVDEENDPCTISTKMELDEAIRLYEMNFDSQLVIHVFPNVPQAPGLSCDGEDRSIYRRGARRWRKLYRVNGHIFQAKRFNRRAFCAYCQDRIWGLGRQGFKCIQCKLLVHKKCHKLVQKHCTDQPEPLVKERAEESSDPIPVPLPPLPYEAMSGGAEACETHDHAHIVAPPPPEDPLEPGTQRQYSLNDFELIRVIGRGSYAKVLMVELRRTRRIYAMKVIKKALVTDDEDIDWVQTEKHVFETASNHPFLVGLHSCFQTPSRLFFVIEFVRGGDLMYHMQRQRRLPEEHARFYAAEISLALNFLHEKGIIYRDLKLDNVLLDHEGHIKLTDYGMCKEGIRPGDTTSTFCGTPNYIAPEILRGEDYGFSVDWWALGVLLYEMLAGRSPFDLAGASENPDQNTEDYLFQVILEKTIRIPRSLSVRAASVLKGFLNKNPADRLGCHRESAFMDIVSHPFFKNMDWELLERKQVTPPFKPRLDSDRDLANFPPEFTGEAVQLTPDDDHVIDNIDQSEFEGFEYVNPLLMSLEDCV

Git-RFP (Drosophila) = molecular target: T3, Git-RFP (Drosophila) (UniProt Q95RG8)
T3 sequence: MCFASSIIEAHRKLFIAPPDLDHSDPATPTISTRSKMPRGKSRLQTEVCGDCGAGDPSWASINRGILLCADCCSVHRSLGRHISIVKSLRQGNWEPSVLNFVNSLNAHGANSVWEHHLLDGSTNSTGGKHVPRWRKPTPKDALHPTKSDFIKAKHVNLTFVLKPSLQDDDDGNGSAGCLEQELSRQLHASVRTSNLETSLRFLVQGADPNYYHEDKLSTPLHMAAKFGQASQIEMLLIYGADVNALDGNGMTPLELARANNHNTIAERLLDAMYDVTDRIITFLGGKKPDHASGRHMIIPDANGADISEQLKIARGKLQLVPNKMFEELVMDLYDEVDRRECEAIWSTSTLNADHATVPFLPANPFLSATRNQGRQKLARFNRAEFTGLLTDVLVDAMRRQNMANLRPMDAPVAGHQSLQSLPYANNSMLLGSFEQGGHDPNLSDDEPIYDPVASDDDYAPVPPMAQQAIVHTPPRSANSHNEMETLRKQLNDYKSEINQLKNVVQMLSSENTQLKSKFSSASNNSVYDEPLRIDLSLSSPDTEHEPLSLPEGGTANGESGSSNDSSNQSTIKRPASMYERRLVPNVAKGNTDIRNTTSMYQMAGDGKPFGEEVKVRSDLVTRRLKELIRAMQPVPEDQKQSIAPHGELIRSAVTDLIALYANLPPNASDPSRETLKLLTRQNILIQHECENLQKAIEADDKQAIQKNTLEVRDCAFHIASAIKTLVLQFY

B1: Git-RFP (protein, UniProt Q95RG8 1-731)
chain: MCFASSIIEAHRKLFIAPPDLDHSDPATPTISTRSKMPRGKSRLQTEVCGDCGAGDPSWASINRGILLCADCCSVHRSLGRHISIVKSLRQGNWEPSVLNFVNSLNAHGANSVWEHHLLDGSTNSTGGKHVPRWRKPTPKDALHPTKSDFIKAKHVNLTFVLKPSLQDDDDGNGSAGCLEQELSRQLHASVRTSNLETSLRFLVQGADPNYYHEDKLSTPLHMAAKFGQASQIEMLLIYGADVNALDGNGMTPLELARANNHNTIAERLLDAMYDVTDRIITFLGGKKPDHASGRHMIIPDANGADISEQLKIARGKLQLVPNKMFEELVMDLYDEVDRRECEAIWSTSTLNADHATVPFLPANPFLSATRNQGRQKLARFNRAEFTGLLTDVLVDAMRRQNMANLRPMDAPVAGHQSLQSLPYANNSMLLGSFEQGGHDPNLSDDEPIYDPVASDDDYAPVPPMAQQAIVHTPPRSANSHNEMETLRKQLNDYKSEINQLKNVVQMLSSENTQLKSKFSSASNNSVYDEPLRIDLSLSSPDTEHEPLSLPEGGTANGESGSSNDSSNQSTIKRPASMYERRLVPNVAKGNTDIRNTTSMYQMAGDGKPFGEEVKVRSDLVTRRLKELIRAMQPVPEDQKQSIAPHGELIRSAVTDLIALYANLPPNASDPSRETLKLLTRQNILIQHECENLQKAIEADDKQAIQKNTLEVRDCAFHIASAIKTLVLQFY
binding [1]: binds

B2: Lgl-GFP (endogenously GFP-tagged Lgl) (protein, UniProt P08111 1-1161)
chain: MLKFIRGKGQQPSADRHRLQKDLFAYRKTAQHGFPHKPSALAYDPVLKLMAIGTQTGALKVFGQPGVELYGQHTLLNNSASELNVQLLEWVYGTGRILSLTAANQLILWEPVGATLLPIKTLPFDGKLKKVSSLCCSLSKDLLWIGTEGGNIYQLDLHTFTIKEPVIYHDVVLEQVPPAYKLNPGAIESIRQLPNSPSKLLVAYNRGLCVLWDFESASVQRAYIAPGHGQSVGLTVNFEGSEFTWYHADGSYATWSIDNPEPPSNVNYVPYGPDPCKSINRLYKGKRRSNDVIVFSGGMPRSAYGDHNCVSVHASDGHKVCLDFTSKVIDFFVTFENNRDVAEVLVVLLEEELCAYDLTDPNICAIKAPYLHSVHASAVTCNYLASEVVQSVYESILRAGDEQDIDYSNISWPITGGTLPDNLEESVEEDATKLYEILLTGHEDGSVKFWDCTGVLLKPIYNFKTSSIFGSESDFRDDAAADMSAEQVDEGEPPFRKSGLFDPYSDDPRLAVKKIAFCPKTGQLIVGGTAGQIVIADFIDLPEKVSLKYISMNLVSDRDGFVWKGHDQLNVRSNLLDGEAIPTTERGVNISGVLQVLPPASITCMALEASWGLVSGGTAHGLVLFDFKNFVPVFHRCTLNPNDLTGAGEQLSRRKSFKKSLRESFRKLRKGRSTRTNQSNQVPTTLEARPVERQIEARCADDGLGSMVRCLLFAKTYVTNVNITSPTLWSATNASTVSVFLLHLPPAQTAATAVPSASGNAPPHMPRRISAQLAKEIQLKHRAPVVGISIFDQAGSPVDQLNAGENGSPPHRVLIASEEQFKVFSLPQLKPINKYKLTANEGARIRRIHFGSFSCRISPETLQSMHGCSPTKSTRSHGDGEADPNISGSLAVSRGDVYNETALICLTNMGDIMVLSVPELKRQLNAAAVRREDINGVSSLCFTNSGEALYMMSSSELQRIALATSRVVQPTGVVPVEPLENEESVLEENDAENNKETYACDEVVNTYEIKNPSGISICTRPAEENVGRNSVQQVNGVNISNSPNQANETISSSIGDITVDSVRDHLNMTTTTLCSINTEETIGRLSVLSTQTNKASTTVNMSEIPNINISNLEDLESKRNTTETSTSSVVIKSIITNISHEKTNGDNKIGTPKTAPEESQF
binding [2]: binds | binding (Git-RFP (Drosophila)): binds
